Consider one sequence from paper PMC6764996.

The chains behind the UniProt entries cited, without tags or fusion partners. Residues count along the entry.
UniProt O75417, 1-894: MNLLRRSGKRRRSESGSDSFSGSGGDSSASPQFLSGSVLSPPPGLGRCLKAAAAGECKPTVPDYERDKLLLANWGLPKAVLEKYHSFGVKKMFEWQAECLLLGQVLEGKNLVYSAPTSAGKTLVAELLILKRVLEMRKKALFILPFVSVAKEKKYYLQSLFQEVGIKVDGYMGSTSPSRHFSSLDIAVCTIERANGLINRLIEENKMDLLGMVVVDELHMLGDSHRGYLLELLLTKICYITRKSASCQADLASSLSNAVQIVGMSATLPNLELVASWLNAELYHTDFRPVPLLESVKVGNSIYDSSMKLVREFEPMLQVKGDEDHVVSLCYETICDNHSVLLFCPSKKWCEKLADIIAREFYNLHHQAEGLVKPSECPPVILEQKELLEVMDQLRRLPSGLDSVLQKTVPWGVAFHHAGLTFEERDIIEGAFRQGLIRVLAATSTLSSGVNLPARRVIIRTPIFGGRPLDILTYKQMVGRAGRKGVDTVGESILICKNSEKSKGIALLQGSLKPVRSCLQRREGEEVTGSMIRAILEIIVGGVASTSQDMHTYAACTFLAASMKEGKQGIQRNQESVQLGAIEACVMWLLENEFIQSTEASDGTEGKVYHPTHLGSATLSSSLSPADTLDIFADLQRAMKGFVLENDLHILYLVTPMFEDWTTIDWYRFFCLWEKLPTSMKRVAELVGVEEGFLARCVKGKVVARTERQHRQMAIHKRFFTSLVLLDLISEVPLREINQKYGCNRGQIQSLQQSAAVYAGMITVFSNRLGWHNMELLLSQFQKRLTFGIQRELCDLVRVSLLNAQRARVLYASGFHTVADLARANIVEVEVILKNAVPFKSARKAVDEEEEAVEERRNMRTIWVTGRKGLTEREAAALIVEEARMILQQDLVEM

Construct, isoform or probe ends are uncertain for at least one entry. A weaker result is weaker than the reference pair of the same experiment. For part of these data: Protein sequences can lack the tags named with them. For part of these data: At least one verdict was read from the data and is not stated in words by the source.

For data set [1], the target named is Polθ-hel (helicase domain) (human) (UniProt O75417). Kind of data set: fluorescence anisotropy. To be noted: 1 mM ATP, Anisotropy: 25 mM Tris-HCl pH 8.8, 1 mM DTT, 0.01% NP-40, 10 mM MgCl2, 10% glycerol, 0.1 mg/ml BSA, 30 mM NaCl, room temp, at least 30 min, 10 nM FAM-ssDNA, recombinant protein, label: 5' FAM, single-stranded DNA. A general note: Fluorescence polarisation rises when a labelled molecule tumbles more slowly, as on binding a larger partner.

Data set [2] addresses T1, Polθ-pol (polymerase domain) (human) (UniProt O75417).
T1 sequence (looked up, limits assumed): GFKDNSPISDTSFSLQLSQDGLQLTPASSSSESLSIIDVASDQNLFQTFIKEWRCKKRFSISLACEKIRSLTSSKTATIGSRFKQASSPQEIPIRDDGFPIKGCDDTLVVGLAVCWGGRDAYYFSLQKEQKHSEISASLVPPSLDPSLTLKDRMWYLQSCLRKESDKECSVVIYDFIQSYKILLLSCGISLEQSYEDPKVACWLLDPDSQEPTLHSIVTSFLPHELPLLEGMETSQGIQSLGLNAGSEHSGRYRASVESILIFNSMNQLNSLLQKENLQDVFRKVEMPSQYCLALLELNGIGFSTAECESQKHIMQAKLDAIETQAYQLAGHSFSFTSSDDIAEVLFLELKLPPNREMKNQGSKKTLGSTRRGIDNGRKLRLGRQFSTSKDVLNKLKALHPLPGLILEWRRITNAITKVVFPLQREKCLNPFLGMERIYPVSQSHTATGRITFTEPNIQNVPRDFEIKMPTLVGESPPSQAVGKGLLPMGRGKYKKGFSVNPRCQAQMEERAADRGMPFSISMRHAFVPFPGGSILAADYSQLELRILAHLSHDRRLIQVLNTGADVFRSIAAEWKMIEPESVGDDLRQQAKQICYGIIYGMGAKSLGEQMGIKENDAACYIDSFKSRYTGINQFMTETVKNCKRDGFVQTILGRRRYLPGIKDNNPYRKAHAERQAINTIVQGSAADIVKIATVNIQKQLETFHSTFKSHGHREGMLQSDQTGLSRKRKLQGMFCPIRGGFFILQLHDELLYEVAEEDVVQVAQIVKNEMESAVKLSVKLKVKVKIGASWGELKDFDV
Kind of data set: fluorescence anisotropy. To be noted: 1 mM ATP, 10 mM MgCl2, KD printed only in figure, higher than full-length Polθ, Anisotropy: 25 mM Tris-HCl pH 8.8, 1 mM DTT, 0.01% NP-40, 10 mM MgCl2, 10% glycerol, 0.1 mg/ml BSA, 30 mM NaCl, room temp, at least 30 min, 10 nM FAM-ssDNA, recombinant protein, label: 5' FAM, single-stranded DNA.

“TTTTTTTTTTTTTTTTTTTTTTTTTTTTT [RP316FAM5 (29 nt ssDNA)]”: the binding result in data set [1] (10 mM MgCl2, KD printed only in figure, higher than full-length Polθ) is “binds more weakly”; in data set [1] (without ATP, no significant effect of ATP on binding) it was “binds”; in data set [2] it was “binds more weakly”.
